Test [1] concerns the target RIPK3 (mouse (endogenous in BMDM)), Q9QZL0. Description: immunoblotting; endogenous proteins in BMDM after LPS; named together with confocal microscopy; no further details shown. The following applies: remark: other sources report otherwise. In general terms: Immunoblotting shows a protein as a band on a membrane.
Test [2] addresses Toll-like receptor 4 (mouse (endogenous in BMDM)) (UniProt Q9QUK6). Description: co-IP; endogenous proteins in BMDM treated with LPS (1 μg/mL) for 1 h.
Test [3] shares this target. In words: co-IP; endogenous proteins in BMDM treated with LPS (1 μg/mL) for 1 h after PD168393 (PD) pretreatment for 30 min.

By UniProt entry, the sequences of proteins in these tests, tags left out. Residues count along the entry.
UniProt Q9QUK6, residues 26-835: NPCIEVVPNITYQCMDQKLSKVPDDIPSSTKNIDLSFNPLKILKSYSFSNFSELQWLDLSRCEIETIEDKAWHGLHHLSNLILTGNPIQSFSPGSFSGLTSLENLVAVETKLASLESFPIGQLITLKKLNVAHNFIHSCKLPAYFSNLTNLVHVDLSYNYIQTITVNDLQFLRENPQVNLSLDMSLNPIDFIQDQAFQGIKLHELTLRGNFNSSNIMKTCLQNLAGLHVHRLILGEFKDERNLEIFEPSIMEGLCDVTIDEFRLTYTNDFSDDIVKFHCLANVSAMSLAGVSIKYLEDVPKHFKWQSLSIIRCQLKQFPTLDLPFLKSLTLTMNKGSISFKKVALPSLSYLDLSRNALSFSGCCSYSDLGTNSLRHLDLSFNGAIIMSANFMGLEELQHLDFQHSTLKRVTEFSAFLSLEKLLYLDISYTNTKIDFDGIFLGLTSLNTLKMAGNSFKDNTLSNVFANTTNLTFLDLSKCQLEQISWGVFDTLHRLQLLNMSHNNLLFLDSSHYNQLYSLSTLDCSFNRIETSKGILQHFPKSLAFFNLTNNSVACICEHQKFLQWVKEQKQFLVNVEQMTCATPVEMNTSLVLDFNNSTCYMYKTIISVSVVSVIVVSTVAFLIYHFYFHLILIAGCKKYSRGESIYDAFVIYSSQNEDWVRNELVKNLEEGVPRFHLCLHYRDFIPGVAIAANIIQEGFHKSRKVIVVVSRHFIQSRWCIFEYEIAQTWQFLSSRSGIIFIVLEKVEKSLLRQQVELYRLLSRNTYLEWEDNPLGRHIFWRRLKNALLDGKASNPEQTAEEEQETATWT

No constants are given. Whether binding was seen depends on the method and setting. For part of these data: Binding seen in cells or lysates may run through a third protein. Some entries that bind do so weakly or less than the wild type.

B1: receptor-interacting serine/threonine-protein kinase 1, Q60855 1-656 (protein)
chain: MQPDMSLDNIKMASSDLLEKTDLDSGGFGKVSLCYHRSHGFVILKKVYTGPNRAEYNEVLLEEGKMMHRLRHSRVVKLLGIIIEEGNYSLVMEYMEKGNLMHVLKTQIDVPLSLKGRIIVEAIEGMCYLHDKGVIHKDLKPENILVDRDFHIKIADLGVASFKTWSKLTKEKDNKQKEVSSTTKKNNGGTLYYMAPEHLNDINAKPTEKSDVYSFGIVLWAIFAKKEPYENVICTEQFVICIKSGNRPNVEEILEYCPREIISLMERCWQAIPEDRPTFLGIEEEFRPFYLSHFEEYVEEDVASLKKEYPDQSPVLQRMFSLQHDCVPLPPSRSNSEQPGSLHSSQGLQMGPVEESWFSSSPEYPQDENDRSVQAKLQEEASYHAFGIFAEKQTKPQPRQNEAYNREEERKRRVSHDPFAQQRARENIKSAGARGHSDPSTTSRGIAVQQLSWPATQTVWNNGLYNQHGFGTTGTGVWYPPNLSQMYSTYKTPVPETNIPGSTPTMPYFSGPVADDLIKYTIFNSSGIQIGNHNYMDVGLNSQPPNNTCKEESTSRHQAIFDNTTSLTDEHLNPIRENLGRQWKNCARKLGFTESQIDEIDHDYERDGLKEKVYQMLQKWLMREGTKGATVGKLAQALHQCCRIDLLNHLIRASQS
For B1, in test [1], the binding result is “binds”.

B2: Rab5a (protein, UniProt Q9CQD1 1-215)
chain: MANRGATRPNGPNTGNKICQFKLVLLGESAVGKSSLVLRFVKGQFHEFQESTIGAAFLTQTVCLDDTTVKFEIWDTAGQERYHSLAPMYYRGAQAAIVVYDITNEESFARAKNWVKELQRQASPNIVIALSGNKADLANKRAVDFQEAQSYADDNSLLFMETSAKTSMNVNEIFMAIAKKLPKNEPQNPGANSARGRGVDLTEPAQPARSQCCSN
B2: the results for the binding entry in test [2] and in test [3] were “binds” and “no binding (condition: with PD168393 pretreatment)”, respectively.

For the origin of these results see article PMC6954894.
